Source: article PMC7083878
No constants are given. Whether binding was seen depends on the method and setting. Binding seen in cells or lysates may run through a third protein. Some entries that bind do so weakly or less than the wild type.

The chains behind the UniProt entries cited, without tags or fusion partners.
UniProt P46937: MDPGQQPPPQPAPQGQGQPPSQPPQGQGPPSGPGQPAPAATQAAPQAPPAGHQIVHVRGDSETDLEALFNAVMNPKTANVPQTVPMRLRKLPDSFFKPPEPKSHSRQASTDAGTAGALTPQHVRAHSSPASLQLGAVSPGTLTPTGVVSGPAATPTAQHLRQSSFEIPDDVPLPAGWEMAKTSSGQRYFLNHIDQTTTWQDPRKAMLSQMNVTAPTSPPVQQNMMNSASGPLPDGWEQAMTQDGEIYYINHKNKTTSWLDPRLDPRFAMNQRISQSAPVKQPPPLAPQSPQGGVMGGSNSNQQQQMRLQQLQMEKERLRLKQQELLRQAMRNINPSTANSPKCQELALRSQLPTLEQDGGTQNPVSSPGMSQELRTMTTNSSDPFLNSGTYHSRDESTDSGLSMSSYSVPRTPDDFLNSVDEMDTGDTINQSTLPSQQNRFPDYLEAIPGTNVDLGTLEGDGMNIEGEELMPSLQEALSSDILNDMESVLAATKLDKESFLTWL

Biological target: T1, RNF187 (Ring finger 187) (human (endogenous in BT549)) (UniProt Q5TA31)
T1 sequence: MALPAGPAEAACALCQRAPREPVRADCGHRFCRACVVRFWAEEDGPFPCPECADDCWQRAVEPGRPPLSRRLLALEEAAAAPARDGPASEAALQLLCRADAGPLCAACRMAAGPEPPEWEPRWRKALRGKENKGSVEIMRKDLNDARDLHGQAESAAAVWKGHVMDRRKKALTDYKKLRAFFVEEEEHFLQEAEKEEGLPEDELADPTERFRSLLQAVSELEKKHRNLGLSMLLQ
Test: co-IP; endogenous proteins; BT549 total cell lysate (RIPA buffer) pre-cleared with rabbit IgG for 2 h, immunoprecipitated with RNF187 antibody or YAP antibody overnight, rabbit IgG as negative control; blotted with anti-YAP or anti-RNF187

binding: binds
Substance: YAP (from UniProt P46937 1-504)
